From paper PMC7862700
The entries are a selection whose mix differs from that of the whole data set. For some of these results: At the low end of the ranking the order means little. Some of the results follow. For some of these results: The source does not settle which construct or isoform was used.

The chains behind the UniProt entries cited, without tags or fusion partners. Where a name states a change or a piece, a line headed by the entry shows the natural chain unless it says otherwise.
UniProt P50549: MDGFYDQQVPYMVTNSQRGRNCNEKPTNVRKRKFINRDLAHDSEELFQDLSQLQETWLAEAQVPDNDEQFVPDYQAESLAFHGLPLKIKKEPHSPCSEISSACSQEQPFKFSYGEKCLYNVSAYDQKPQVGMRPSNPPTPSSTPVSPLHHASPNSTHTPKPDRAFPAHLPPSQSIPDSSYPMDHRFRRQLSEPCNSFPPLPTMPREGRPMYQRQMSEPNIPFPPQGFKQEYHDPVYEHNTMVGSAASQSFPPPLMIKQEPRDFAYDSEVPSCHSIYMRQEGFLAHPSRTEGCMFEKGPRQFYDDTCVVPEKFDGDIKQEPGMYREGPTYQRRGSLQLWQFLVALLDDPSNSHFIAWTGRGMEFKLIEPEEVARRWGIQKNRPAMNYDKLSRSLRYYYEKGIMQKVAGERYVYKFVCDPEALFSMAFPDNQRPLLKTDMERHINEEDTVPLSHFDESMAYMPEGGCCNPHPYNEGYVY
UniProt P32519: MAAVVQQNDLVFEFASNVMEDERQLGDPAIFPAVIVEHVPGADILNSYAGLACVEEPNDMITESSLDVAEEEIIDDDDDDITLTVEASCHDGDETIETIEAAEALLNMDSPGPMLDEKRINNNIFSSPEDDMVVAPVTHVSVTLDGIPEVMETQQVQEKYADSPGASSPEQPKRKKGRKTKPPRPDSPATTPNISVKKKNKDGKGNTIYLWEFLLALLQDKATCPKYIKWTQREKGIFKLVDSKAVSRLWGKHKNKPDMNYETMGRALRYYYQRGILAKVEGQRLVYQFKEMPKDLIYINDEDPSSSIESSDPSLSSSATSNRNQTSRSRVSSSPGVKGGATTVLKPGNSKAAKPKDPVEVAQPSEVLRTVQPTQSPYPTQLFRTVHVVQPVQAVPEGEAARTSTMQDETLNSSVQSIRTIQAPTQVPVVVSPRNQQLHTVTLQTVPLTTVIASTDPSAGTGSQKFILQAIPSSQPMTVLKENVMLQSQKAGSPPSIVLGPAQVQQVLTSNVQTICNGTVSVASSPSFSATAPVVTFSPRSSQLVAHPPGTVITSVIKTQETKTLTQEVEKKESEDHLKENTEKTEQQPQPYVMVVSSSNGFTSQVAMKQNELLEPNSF

Experiments:
Test in all cases: DAPPL (digital affinity profiling via proximity ligation, sequencing)
Conditions in all cases: 10 mM Tris-HCl pH 7.5, 50 mM NaCl, 1 mM DTT, 4% glycerol, room temperature, 30 min; GST-TFs on glutathione beads, 16-mer random dsDNA library, 0.1% …; high values mean tight binding; double strand, one strand shown; scale: fold enrichment (6-mer frequency, TF over GST control)
ETV4 = molecular target: T1, ETV4 (UniProt P43268)
T1 sequence: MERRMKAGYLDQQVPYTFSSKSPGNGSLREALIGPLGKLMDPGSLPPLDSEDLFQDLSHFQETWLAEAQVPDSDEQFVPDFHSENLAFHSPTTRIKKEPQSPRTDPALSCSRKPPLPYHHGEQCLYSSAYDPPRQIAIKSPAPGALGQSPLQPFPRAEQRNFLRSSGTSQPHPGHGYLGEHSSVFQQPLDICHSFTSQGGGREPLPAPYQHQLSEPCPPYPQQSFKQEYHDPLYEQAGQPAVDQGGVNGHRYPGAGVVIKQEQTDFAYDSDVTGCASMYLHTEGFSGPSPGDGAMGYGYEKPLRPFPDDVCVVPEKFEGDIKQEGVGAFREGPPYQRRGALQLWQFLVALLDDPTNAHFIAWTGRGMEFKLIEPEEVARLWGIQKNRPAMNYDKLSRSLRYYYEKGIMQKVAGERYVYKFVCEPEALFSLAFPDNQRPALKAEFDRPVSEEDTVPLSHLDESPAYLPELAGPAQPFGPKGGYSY

ETV1 = ETV1 (UniProt P50549)
ERF = molecular target: T2, ERF (UniProt P50548)
T2 sequence: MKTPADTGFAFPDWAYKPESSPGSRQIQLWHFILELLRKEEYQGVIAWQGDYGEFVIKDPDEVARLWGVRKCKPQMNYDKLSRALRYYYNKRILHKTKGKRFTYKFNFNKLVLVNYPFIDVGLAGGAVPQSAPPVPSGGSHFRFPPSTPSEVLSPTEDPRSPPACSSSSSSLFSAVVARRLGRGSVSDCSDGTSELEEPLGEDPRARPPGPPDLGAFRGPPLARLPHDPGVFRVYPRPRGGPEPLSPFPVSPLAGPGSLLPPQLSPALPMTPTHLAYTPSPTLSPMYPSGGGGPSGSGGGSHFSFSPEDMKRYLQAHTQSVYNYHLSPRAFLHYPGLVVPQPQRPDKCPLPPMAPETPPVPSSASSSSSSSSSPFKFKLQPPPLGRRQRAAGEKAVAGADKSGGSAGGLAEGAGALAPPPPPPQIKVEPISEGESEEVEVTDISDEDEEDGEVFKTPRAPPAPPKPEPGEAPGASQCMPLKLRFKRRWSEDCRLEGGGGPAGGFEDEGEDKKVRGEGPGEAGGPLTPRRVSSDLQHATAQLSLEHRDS

ELF1 = ELF1 (UniProt P32519)

Sequence	binding signal (ETV4)	binding signal (ETV1)	binding signal (ERF)	binding signal (ELF1)
CAATAC	1.24	1.3	1.38	
ACTAGG	1.02	0.951	0.92	
AACATT	1.23	1.29		
TCTCCT	1.55	1.49	1.34	
GAAACT	1.16	1.27	1.03	
CTGAAA	1.22	1.1	1.09	
CATAAC	1.19	1.1		
CGCCAT	1.02	0.98	1.08	
CATGCG	0.992	0.946	0.993	
CGATAG	1.11	1.16		
CTGCGC	1.45	1.58	1.34	
ACACGC	1.13	1.11	0.958	
GCTGCC	1.09	1.19	1	
GGTAAC	0.957	0.992	1	0.999

Taken from above:
Under binding signal (ETV4), ACACGC is entered as 1.13
Under binding signal (ELF1), GGTAAC is entered as 0.999
